Results are given in words; binding and its absence hold for the method and conditions named. In cells and extracts the contact can be indirect. Here binding means that the protein was enriched with, or labelled near, the bait; the list need not be complete.
Substrate: CBP immunoprecipitated for the mass spectrometry screen of CBP-binding proteins (UniProt P45481)
Experiment: affinity purification with mass spectrometry; immunoprecipitation of CBP followed by mass spectrometry (unique peptides >= 1); cells not given

Amino acid sequences for entries named in this document (tags omitted).
UniProt P45481: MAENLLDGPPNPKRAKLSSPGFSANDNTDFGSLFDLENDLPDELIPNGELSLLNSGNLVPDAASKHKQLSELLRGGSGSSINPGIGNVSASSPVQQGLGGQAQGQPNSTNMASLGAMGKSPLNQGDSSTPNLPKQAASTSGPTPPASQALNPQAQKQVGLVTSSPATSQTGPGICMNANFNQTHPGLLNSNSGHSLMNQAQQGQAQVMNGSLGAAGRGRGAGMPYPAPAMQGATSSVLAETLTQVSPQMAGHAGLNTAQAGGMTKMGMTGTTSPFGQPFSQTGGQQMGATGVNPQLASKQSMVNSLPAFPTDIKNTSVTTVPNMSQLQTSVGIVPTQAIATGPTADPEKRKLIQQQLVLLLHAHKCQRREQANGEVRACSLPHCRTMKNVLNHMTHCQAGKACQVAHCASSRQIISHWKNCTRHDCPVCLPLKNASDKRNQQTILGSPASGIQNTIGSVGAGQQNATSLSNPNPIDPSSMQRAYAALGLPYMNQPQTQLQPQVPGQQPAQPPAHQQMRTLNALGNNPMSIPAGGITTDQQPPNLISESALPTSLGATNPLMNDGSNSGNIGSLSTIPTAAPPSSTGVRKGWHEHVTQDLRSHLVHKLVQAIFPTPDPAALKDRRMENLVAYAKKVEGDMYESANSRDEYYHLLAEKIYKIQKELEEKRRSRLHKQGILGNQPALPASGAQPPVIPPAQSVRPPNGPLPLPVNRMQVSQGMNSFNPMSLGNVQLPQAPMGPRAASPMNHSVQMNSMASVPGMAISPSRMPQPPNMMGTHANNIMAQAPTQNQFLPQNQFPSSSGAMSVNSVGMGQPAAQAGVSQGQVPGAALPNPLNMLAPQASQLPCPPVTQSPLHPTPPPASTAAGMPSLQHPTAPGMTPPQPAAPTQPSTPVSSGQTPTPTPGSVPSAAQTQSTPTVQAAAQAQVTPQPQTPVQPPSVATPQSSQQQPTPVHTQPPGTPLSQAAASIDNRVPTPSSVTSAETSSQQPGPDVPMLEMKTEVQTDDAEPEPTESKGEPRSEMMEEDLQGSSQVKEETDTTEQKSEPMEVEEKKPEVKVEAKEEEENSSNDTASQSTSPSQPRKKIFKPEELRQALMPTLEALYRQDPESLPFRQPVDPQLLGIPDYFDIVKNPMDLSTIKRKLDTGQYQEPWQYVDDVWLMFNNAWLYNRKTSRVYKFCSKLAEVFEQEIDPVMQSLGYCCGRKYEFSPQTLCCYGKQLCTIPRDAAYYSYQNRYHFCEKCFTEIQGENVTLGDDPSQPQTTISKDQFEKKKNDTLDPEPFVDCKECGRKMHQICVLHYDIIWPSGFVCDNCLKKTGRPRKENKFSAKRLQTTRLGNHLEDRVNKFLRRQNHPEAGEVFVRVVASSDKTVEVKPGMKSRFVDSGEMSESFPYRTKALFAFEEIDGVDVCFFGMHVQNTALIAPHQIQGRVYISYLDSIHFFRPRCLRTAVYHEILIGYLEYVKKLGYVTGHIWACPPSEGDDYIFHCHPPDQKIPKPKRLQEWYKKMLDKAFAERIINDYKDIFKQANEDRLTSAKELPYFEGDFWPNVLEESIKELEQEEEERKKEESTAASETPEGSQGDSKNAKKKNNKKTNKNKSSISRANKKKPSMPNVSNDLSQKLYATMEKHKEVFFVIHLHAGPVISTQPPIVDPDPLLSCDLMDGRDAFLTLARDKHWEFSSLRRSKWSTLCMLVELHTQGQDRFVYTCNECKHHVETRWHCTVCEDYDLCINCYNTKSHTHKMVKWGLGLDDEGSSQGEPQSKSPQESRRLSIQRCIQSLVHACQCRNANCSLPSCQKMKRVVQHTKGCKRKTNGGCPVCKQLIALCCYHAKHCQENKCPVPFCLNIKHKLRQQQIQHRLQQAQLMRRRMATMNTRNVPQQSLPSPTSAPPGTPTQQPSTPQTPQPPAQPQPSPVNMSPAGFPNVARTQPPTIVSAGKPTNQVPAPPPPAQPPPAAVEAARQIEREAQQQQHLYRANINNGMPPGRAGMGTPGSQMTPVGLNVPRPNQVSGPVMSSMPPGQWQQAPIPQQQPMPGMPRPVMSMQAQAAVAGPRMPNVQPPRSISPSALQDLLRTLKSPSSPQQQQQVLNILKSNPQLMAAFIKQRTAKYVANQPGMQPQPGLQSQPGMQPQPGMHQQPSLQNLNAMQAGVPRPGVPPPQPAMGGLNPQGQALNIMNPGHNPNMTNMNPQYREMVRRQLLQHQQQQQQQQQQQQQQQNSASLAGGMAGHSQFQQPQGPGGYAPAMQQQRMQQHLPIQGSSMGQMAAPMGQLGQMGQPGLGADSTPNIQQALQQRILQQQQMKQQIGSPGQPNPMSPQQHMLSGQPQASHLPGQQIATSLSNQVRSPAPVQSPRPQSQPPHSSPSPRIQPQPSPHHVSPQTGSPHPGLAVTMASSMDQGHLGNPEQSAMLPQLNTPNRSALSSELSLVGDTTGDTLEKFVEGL

- binding: binds
B1: Trim24 found by mass spectrometry in the CBP immunoprecipitate (protein, UniProt Q64127 1-1051)
chain: MEVAVEKAAAAAAPAGGPAAAAPSGENEAESRQGPDSESGGEASRLNLLDTCAVCHQNIQSRVPKLLPCLHSFCQRCLPAPQRYLMLTAPALGSAETPPPAPAPAPAPGSPAGGPSPFATQVGVIRCPVCSQECAERHIIDNFFVKDTTEVPSSTVEKSNQVCTSCEDNAEANGFCVECVEWLCKTCIRAHQRVKFTKDHTVRQKEEVSPEAVGVTSQRPVFCPFHKKEQLKLYCETCDKLTCRDCQLLEHKEHRYQFIEEAFQNQKVIIDTLITKLMEKTKYIKYTGNQIQNRIIEINQNQKQVEQDIKVAIFTLMVEINKKGKALLHQLESLAKDHRMKLMQQQQEVAGLSKQLEHVMHFSKWAVSSGSSTALLYSKRLITYRLRHLLRARCDASPVTNTTIQFHCDPSFWAQNIINLGSLVIEDKESQPQMPKQNPVVEQSSQPPGGLPSNQLSKFPTQISLAQLRLQHIQQQVMAQRQQVQRRPAPVGLPNPRMQGPIQQPSISHQHPPPRLINFQNHSPKPNGPVLPPYPQQLRYSPSQNVPRQTTIKPNPLQMAFLAQQAIKQWQISSVQAPPTTASSSSSTPSSPTITSAAGYDGKAFSSPMIDLSAPVGGSYNLPSLPDIDCSSTIMLDNIARKDTGVDHAQPRPPSNRTVQSPNSSVPSPGLAGPVTMTSVHPPIRSPSASSVGSRGSSGSSSKPAGADSTHKVPVVMLEPIRIKQENSGPPENYDFPVVIVKQESDEESRPQNTNYPRSILTSLLLNSSQSSASEETVLRSDAPDSTGDQPGLHQENSSNGKSEWSDASQKSPVHVGETRKEDDPNEDWCAVCQNGGELLCCEKCPKVFHLTCHVPTLTNFPSGEWICTFCRDLSKPEVDYDCDVPSHHSEKRKSEGLTKLTPIDKRKCERLLLFLYCHEMSLAFQDPVPLTVPDYYKIIKNPMDLSTIKKRLQEDYCMYTKPEDFVADFRLIFQNCAEFNEPDSEVANAGIKLESYFEELLKNLYPEKRFPKVEFRHEAEDCKFSDDSDDDFVQPRKKRLKSTEDRQLLK

From article PMC6761150
